# From US20230349922A1, “H2 Blockers Targeting Liver Macrophages for the Prevention and Treatment of Liver Disease and Cancer” (Université de Strasbourg, priority 2020, published 2023)
# At least one compound was matched to its structure with a doubt left.
# Key:
# [1] = test system: prognostic liver signature (PLS); assay: cPLS model: reversal of the prognostic liver signature in HCV-infected Huh7.5.1dif cells; format: cell-based, human; settings: Huh7.5.1dif cells infected with HCV Jc1 for 7 days, treated 3 additional days; GSEA
# [2] = test system: H2 receptors; settings: cited from earlier work
SMILES,reversal of the poor prognosis status of the prognostic liver signature (PLS) [1],potency for H2 receptors versus other peripheral and central receptors [2] [fold]
CNC(=C[N+](=O)[O-])NCCSCc1ccc(CN(C)C)o1 [Ranitidine],partial reversal of the PLS,
"c1cc(CN2CCCCC2)cc(OCCCNc2nc3ccccc3s2)c1 [Zolantidine, N-[3-[3-(1-piperidinylmethyl)phenoxy]propyl]-1,3-benzothiazol-2-amine]",,30
